Data on one substance can be found in PMC3629153.

Results are given in words; binding and its absence hold for the method and conditions named. In cells and extracts the contact can be indirect. A result given as binding can be weak or reduced; the word gives no strength.

The target in this experiment is T1, tetraspanin CD81 (human (endogenous in MDA-MB-231)) (UniProt P60033).
T1 sequence: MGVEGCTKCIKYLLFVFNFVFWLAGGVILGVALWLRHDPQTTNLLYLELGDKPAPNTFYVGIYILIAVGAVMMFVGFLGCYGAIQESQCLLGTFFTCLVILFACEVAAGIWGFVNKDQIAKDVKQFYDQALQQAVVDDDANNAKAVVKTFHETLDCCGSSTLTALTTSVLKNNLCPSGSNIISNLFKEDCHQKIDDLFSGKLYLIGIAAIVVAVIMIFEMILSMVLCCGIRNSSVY
Briefly: co-IP; MDA-MB-231 wild type cells (also CD9/CD81si and CD151RX cells) lysed in 1% Brij 96V/Brij 99 (1:1), 20 mM HEPES pH 7.2, 150 mM NaCl, 1 mM MgCl2; CD9, CD81 or CD151 immunoprecipitated (5 µg/ml antibody, protein G sepharose); blot for the α3 integrin subunit.

As for “α3β1 integrin (human (endogenous in MDA-MB-231)) (complex)”, the binding result is on record as “binds weakly”.
